The target in assay [1] is Transportin-1 (human (endogenous in MS751 and Siha)) (UniProt Q92973). The assay can be described thus: co-IP; immunoprecipitation of FUBP1 or of TNPO1 from MS751 and Siha cells, immunoblot of the other protein; protocol as in ref. 21. In general terms: A western blot detects proteins with antibodies after separation by electrophoresis.
Assay [2] has as its target Far upstream element binding protein 1 (human (endogenous in MS751 and Siha)) (UniProt Q96AE4). The assay is described as above.

Amino acid sequences for entries named in this document (tags omitted).
UniProt Q92973: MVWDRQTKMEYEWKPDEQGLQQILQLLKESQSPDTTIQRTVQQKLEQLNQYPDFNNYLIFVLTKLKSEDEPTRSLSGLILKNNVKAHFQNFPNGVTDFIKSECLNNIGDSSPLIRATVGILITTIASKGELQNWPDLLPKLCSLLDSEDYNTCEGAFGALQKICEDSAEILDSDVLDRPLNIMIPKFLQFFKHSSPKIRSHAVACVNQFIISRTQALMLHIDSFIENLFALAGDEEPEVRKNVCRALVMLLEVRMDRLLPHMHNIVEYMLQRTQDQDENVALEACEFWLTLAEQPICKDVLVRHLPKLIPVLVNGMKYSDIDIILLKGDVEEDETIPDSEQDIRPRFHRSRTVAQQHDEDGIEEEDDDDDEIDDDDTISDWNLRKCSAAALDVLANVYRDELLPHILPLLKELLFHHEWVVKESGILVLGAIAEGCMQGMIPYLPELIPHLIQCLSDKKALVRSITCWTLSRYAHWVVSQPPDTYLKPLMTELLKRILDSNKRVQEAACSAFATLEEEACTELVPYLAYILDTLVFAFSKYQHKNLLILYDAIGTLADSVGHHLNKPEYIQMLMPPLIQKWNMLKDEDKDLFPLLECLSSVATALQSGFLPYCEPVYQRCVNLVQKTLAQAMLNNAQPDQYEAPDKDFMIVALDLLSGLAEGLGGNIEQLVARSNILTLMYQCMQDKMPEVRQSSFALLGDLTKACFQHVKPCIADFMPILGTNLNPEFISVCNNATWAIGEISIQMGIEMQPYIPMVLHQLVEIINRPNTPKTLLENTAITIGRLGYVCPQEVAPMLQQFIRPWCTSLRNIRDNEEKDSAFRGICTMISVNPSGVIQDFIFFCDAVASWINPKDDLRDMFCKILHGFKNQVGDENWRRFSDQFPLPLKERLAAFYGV
UniProt Q96AE4: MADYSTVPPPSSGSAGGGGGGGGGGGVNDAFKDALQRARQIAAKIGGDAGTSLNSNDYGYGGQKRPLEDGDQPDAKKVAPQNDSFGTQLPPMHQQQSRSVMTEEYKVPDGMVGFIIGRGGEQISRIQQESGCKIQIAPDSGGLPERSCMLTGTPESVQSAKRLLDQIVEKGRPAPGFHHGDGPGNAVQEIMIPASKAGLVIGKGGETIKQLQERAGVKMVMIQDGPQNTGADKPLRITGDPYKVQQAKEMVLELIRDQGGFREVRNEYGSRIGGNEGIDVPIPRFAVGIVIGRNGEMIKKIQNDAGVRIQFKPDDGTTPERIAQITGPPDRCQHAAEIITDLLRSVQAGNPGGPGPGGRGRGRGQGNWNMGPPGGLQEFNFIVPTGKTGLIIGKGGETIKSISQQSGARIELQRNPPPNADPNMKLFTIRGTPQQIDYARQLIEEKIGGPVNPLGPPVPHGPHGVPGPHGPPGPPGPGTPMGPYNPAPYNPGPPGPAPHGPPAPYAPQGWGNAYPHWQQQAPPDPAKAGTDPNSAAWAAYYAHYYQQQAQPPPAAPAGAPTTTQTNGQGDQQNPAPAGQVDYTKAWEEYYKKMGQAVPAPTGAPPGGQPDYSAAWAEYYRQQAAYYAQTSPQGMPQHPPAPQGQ

These are yes or no findings as the source states them, for the method shown. Binding seen in cells or lysates may run through a third protein. Some binding calls cover weakened binding; strength is not graded here.

Regarding “Far upstream element binding protein 1 (from UniProt Q96AE4 1-644)”, the binding entry in assay [1] is given as “binds”.

Turning to “Transportin-1 (from UniProt Q92973 1-898)”, the binding result in assay [2] is on record as “binds”.

For the origin of these results see PMC8093035.
